Assay results as given in the supplement of paper PMC10849652.
This is one part of the list. Residues, ends and D or L forms follow the SMILES beside them. *: point of attachment. Cbz = O=C(OCc1ccccc1)*

By UniProt entry, the sequences of proteins in these tests, tags left out. Where a name states a change or a piece, a line headed by the entry shows the natural chain unless it says otherwise.
UniProt Q643R3: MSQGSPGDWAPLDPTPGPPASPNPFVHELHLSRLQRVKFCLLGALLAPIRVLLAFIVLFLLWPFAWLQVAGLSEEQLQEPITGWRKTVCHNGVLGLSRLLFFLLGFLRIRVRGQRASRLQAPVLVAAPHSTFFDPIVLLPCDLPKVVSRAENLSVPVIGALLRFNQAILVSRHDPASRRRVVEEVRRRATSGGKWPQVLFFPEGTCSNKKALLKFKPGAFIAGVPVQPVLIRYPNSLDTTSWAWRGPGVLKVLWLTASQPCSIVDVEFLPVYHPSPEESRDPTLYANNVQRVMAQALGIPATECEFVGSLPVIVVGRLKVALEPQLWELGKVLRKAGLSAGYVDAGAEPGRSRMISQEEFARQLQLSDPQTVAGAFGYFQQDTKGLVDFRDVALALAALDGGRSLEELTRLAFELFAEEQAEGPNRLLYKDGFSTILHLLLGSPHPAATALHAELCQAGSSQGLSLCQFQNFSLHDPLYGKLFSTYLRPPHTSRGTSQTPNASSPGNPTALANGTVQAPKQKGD
UniProt P17931, whole entry, looked up: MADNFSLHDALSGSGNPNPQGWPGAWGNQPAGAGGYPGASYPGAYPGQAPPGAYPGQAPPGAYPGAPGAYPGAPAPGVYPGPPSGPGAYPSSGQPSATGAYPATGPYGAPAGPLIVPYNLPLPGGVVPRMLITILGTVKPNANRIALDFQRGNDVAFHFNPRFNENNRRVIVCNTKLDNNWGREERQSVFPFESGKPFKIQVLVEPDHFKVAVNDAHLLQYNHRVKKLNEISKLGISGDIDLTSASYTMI
UniProt Q8N3Y3: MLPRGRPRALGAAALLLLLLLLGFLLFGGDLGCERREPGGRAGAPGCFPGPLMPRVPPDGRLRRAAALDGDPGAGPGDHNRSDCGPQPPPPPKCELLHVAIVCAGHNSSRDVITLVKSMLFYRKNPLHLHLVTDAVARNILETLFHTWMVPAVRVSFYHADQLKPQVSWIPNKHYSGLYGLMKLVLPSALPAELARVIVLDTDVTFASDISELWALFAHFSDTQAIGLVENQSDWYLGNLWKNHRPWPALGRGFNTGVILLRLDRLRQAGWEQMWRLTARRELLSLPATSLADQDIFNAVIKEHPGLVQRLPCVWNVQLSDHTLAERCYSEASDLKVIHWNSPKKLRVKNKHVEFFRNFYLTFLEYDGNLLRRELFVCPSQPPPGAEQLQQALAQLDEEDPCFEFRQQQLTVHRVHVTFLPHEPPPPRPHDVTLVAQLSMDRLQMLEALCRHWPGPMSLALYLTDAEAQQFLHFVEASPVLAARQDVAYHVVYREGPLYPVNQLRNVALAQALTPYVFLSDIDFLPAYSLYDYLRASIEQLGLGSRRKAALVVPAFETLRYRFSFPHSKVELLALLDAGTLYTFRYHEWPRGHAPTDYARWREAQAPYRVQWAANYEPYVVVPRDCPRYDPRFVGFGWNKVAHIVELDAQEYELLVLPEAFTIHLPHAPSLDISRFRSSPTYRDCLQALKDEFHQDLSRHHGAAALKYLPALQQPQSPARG
UniProt Q86VI4: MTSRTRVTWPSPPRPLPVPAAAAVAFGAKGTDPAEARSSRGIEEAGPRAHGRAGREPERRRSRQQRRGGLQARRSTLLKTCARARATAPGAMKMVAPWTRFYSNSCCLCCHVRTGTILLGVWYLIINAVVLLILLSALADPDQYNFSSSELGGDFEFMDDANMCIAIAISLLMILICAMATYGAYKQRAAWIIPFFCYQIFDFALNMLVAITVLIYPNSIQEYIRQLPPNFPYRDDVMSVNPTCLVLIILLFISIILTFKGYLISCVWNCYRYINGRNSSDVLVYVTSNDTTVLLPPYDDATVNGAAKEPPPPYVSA
UniProt Q96JN0: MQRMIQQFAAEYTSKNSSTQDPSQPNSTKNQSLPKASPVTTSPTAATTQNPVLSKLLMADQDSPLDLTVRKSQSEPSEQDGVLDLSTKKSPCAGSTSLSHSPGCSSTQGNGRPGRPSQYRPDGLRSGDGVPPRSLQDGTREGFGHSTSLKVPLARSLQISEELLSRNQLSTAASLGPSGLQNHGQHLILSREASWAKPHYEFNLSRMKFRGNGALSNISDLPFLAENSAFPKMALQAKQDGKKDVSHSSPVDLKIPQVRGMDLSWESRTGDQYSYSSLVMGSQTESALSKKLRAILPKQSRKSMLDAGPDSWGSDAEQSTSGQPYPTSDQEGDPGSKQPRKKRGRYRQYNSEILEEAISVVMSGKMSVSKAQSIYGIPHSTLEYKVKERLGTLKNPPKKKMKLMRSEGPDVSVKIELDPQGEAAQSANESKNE
UniProt Q96KR4: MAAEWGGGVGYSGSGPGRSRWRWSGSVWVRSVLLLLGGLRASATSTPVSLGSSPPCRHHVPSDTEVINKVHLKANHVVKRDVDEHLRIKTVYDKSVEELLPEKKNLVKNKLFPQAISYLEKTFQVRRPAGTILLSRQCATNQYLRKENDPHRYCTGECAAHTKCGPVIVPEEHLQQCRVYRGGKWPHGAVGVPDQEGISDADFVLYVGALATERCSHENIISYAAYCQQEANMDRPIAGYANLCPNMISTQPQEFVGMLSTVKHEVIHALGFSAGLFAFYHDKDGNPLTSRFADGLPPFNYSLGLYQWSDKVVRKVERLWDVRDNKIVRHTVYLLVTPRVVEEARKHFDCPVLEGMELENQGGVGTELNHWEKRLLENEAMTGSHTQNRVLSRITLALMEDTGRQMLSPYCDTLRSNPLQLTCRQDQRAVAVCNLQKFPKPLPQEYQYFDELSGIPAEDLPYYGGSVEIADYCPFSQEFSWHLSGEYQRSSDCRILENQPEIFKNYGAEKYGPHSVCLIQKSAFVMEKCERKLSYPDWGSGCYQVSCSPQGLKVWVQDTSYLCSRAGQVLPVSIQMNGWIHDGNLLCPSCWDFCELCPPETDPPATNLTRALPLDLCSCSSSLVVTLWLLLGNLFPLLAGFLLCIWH
UniProt Q08380: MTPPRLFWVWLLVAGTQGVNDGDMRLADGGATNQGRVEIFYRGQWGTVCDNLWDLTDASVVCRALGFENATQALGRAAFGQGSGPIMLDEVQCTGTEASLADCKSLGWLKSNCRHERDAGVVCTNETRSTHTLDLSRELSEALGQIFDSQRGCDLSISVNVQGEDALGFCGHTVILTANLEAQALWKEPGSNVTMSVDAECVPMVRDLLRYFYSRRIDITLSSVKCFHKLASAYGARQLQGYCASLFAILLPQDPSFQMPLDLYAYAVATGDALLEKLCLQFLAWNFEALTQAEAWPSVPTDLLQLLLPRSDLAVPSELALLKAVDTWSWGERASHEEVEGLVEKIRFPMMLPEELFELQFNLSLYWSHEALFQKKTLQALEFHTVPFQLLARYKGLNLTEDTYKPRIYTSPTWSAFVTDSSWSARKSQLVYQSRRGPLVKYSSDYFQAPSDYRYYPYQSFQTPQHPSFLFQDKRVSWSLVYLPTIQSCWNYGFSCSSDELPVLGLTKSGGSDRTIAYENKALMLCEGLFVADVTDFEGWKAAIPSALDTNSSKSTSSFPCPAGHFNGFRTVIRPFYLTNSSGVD
UniProt Q12912: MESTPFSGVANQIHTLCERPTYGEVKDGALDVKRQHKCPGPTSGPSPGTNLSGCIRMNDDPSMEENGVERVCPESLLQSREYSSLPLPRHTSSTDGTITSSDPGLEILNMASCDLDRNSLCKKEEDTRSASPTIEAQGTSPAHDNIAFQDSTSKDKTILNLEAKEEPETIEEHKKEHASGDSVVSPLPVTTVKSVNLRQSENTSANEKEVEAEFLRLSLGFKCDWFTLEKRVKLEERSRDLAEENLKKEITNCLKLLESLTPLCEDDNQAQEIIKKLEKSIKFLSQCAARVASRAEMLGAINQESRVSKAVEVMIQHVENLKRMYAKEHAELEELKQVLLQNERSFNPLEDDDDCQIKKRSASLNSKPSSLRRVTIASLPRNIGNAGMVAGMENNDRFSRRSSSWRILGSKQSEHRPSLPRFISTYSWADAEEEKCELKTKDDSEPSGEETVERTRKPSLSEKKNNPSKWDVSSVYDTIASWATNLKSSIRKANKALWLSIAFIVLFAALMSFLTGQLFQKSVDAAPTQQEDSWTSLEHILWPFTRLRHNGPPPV
UniProt P28300: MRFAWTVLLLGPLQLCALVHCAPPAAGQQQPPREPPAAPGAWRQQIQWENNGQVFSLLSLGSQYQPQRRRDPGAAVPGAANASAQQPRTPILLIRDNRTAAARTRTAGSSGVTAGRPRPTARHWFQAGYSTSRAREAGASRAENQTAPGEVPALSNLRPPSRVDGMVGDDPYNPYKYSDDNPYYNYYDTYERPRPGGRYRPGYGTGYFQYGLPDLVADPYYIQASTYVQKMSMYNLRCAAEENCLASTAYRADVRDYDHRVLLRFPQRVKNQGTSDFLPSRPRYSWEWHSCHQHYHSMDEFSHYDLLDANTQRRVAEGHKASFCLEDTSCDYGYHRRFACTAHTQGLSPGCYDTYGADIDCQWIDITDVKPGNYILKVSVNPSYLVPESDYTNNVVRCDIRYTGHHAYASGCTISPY
UniProt Q53QV2: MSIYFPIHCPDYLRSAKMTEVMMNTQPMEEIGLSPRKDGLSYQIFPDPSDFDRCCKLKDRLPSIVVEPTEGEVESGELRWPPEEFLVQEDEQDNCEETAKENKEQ
UniProt Q15345: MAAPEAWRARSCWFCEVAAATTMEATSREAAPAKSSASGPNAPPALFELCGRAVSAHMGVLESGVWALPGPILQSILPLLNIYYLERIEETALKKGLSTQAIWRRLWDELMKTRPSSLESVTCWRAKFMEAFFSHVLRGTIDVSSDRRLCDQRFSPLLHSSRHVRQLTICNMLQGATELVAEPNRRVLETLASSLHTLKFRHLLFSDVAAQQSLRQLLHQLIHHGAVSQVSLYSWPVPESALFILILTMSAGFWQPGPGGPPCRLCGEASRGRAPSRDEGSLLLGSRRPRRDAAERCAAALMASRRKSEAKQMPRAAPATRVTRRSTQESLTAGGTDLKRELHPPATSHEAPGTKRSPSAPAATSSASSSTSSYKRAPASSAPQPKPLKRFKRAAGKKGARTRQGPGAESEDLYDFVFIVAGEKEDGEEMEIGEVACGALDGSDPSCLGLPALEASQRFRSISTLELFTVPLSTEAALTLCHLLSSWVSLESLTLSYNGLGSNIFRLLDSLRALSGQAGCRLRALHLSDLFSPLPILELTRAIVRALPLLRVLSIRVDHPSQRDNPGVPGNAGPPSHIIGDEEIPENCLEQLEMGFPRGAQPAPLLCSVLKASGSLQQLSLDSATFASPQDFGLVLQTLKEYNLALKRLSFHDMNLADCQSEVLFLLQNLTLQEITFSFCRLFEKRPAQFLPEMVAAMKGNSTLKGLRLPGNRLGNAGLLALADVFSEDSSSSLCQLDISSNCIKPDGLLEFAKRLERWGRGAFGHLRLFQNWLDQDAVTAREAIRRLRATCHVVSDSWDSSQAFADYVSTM
UniProt Q6P5S2: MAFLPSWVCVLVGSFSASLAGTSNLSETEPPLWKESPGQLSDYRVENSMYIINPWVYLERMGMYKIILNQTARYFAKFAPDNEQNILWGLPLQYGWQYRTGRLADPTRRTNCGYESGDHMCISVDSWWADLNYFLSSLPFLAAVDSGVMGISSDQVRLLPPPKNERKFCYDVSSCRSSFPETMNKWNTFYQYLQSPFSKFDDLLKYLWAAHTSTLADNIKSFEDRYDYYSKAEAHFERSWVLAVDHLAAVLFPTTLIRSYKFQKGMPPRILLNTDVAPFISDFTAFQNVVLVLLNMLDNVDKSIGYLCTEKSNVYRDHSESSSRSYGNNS
UniProt Q9BQK8: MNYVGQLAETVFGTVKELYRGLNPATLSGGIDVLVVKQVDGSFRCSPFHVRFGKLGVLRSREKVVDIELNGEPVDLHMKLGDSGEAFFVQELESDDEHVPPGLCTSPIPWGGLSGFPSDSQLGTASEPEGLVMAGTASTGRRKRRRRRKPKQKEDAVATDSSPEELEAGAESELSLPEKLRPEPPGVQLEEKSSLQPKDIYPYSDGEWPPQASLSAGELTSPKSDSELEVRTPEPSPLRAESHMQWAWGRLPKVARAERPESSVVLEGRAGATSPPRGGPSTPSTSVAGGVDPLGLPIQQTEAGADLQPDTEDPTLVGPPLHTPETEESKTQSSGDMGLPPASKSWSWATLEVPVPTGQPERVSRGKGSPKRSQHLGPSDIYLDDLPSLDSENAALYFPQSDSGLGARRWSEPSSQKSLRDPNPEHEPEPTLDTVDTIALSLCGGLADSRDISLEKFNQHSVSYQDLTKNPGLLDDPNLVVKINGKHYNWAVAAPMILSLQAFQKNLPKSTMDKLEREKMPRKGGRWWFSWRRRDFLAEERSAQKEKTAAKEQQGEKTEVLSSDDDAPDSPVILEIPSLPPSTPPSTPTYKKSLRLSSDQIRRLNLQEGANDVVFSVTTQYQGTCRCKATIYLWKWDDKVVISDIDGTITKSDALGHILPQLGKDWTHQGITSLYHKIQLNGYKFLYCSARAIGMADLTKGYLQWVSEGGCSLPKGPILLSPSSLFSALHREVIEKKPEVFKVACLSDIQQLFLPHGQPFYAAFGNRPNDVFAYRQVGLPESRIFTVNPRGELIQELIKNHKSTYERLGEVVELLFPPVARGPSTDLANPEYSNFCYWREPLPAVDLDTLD

Tests used:
Experiment in all cases: log2 fold change, soluble protein after heating vs DMSO (PISA); higher = thermal stabilisation; K562 cells, 10 uM, 30 min; active = over 0.2 and 3.5 SD of the protein, either way, in both replicates (recomputed)
ralimetinib = compound: CC(C)(C)Cn1c(N)nc2ccc(-c3[nH]c(C(C)(C)C)nc3-c3ccc(F)cc3)nc21 [ralimetinib]
Summary of the method: (§1)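 Thermal stability values are relative to control samples and come from duplicates. They are expressed as log2 fold changes. For measurement, K562 cells (2×10^6 cells/mL) received 10 μM compound for 30 min, and aliquots were heated for 3 min over 48°C-58°C, pooled, and extracted at 4°C in PBS with 0.5% NP-40. Soluble protein, the supernatant after 21,000xg for 90 min, was quantified by TMTpro 16plex LC-MS/MS with equalised channel sums.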

[1] = compound: CC(C)C[C@@H](C=O)NC(=O)[C@H](CC(C)C)NC(=O)[C@H](CC(C)C)NC(=O)OCc1ccccc1
Summary of the method: as §1

[2] = compound: CC(C)(O)CC(=O)NCCn1ccc2ncnc(Nc3ccc(Oc4cccc(C(F)(F)F)c4)c(Cl)c3)c21
Summary of the method: as §1

[3] = compound: CC1=C(C2=C(C=C1)C(=O)C3=CC=CC=C3N2CCCN)C
Summary of the method: as §1

IRAK-1-4 Inhibitor I = compound: C1COCCN1CCN2C3=CC=CC=C3N=C2NC(=O)C4=CC(=CC=C4)[N+](=O)[O-] [IRAK-1-4 Inhibitor I]
Summary of the method: as §1

pinometostat = compound: CC(C)N(C[C@H]1O[C@@H](n2cnc3c(N)ncnc32)[C@H](O)[C@@H]1O)[C@H]1C[C@@H](CCc2nc3cc(C(C)(C)C)ccc3[nH]2)C1 [pinometostat]
Summary of the method: as §1

ibrutinib = compound: C=CC(=O)N1CCC[C@@H](n2nc(-c3ccc(Oc4ccccc4)cc3)c3c(N)ncnc32)C1 [ibrutinib]
Summary of the method: as §1

[4] = compound: CC(=O)c1cnc2ccc(-c3cc(Cl)c(O)c(Cl)c3)nc2c1N[C@H]1CC[C@H](CN(C)C)CC1
Summary of the method: as §1

[5] = compound: CC(C)C1=C2N=C(C=C(N2N=C1)NCC3=CC=CC=C3)NCCCCCCN
Summary of the method: as §1

[6] = compound: CC1=C(C(CC(=O)N1)C2=CC=C(C=C2)C(F)(F)F)C(=O)NC3=C(C=C4C(=C3)C=NN4)F
Summary of the method: as §1

Measured: log2 fold change

LARP1B, A0A3B3ISF0
inactive: ralimetinib 0.001 | [1] 0.131

LIPT2 (UniProt A6NK58)
inactive: [2] 0.065 | [3] 0.033

LPCAT4 (UniProt Q643R3)
inactive: IRAK-1-4 Inhibitor I -0.095 | [2] -0.14 | pinometostat 0.147

KXD1 (UniProt Q9BQD3)
inactive: ibrutinib 0.092 | [4] -0.073 | ralimetinib -0.053 | [2] 0.034 | [5] -0.181 | [1] 0.041 | [3] 0.057

LCN2 isoform 2 (UniProt P80188)
inactive: [3] 0.157

LIG3 (UniProt P49916)
inactive: [4] 0.146 | [5] -0.023 | [6] -0.072

LIPT1 (UniProt Q9Y234)
inactive: [4] 0.06

LOR (UniProt P23490)
inactive: [2] 0.4

Two entries drawn at random from those above, as already listed:
LIPT1 (UniProt Q9Y234)
inactive: [4] 0.06

LPCAT4 (UniProt Q643R3)
inactive: IRAK-1-4 Inhibitor I -0.095 | [2] -0.14 | pinometostat 0.147

Next results:

LGALS3 (UniProt P17931)
inactive: ibrutinib -0.043 | ralimetinib -0.097 | [1] 0 | [6] -0.244

LAMB2 (UniProt P55268)
inactive: ralimetinib 0.073 | [1] 0.303 | [3] 0.13

LRP5 (UniProt O75197)
inactive: [2] -0.12 | [6] 0.086 | [3] -0.208

LRP1 (UniProt Q07954)
inactive: [4] 0.08 | [2] -0.079 | [6] 0.271 | [3] 0.058

LMBRD1 (UniProt Q9NUN5)
active: [5] -0.708
inactive: ibrutinib 0.036 | [4] 0.026 | ralimetinib 0.088 | [2] -0.059 | [1] -0.022 | [3] -0.086

LAMA5 (UniProt O15230)
inactive: [4] -0.055 | [2] 0.03 | [5] -0.222 | [6] -0.177 | [3] -0.182

LRRC42 (UniProt Q9Y546)
inactive: ibrutinib 0.156 | [4] -0.262 | ralimetinib 0.121 | [5] -0.003 | [1] 0.048 | [3] -0.012

LARGE2 (UniProt Q8N3Y3)
inactive: IRAK-1-4 Inhibitor I -0.17 | pinometostat -0.032

LLGL1 (UniProt Q15334)
inactive: IRAK-1-4 Inhibitor I 0.025 | [2] -0.155 | [5] -0.021 | pinometostat 0 | [3] -0.116

LGALSL (UniProt Q3ZCW2)
inactive: IRAK-1-4 Inhibitor I 0.332 | pinometostat -0.017

LAPTM4B (UniProt Q86VI4)
inactive: ibrutinib 0.019 | [5] 0.141

LCOR isoform 3 (UniProt Q96JN0)
inactive: [4] 0.037

LMLN isoform 3 (UniProt Q96KR4)
inactive: ibrutinib -0.209 | [2] 0.154

LGALS3BP (UniProt Q08380)
inactive: [4] 0.048 | [2] 0.091 | [6] 0.108

LDHC (UniProt P07864)
inactive: ibrutinib -0.001 | [2] 0.129 | [6] 0.037

LRMP (UniProt Q12912)
inactive: ralimetinib 0.028 | [1] 0.126

LIN28A (UniProt Q9H9Z2)
inactive: ibrutinib -0.251

LAPTM5 (UniProt Q13571)
inactive: ibrutinib -0.075 | [4] 0.226 | ralimetinib 0.02 | [1] 0.178 | [3] -0.045

LOX (UniProt P28300)
inactive: ibrutinib 0.074 | [5] -0.218

LIG4 (UniProt P49917)
inactive: [6] -0.4

LBH (UniProt Q53QV2)
inactive: [4] -0.108 | ralimetinib -0.324 | [2] -0.253 | [1] 0.001 | [6] 0.011

LRRC41 (UniProt Q15345)
inactive: ibrutinib 0.016 | [5] -0.348

LEG1 (UniProt Q6P5S2)
inactive: ibrutinib -0.043 | [4] 0.019 | [6] -0.052

LMNA isoform 2 (UniProt P02545)
inactive: [3] -0.128

LEPROT (UniProt O15243)
inactive: [4] -0.037 | [2] 0.142 | [3] 0.092
active: [5] -0.777

LAMA2 (UniProt P24043)
inactive: ibrutinib -0.003 | [5] 0.393 | [6] -0.023

LPIN3 isoform 2 (UniProt Q9BQK8)
inactive: ibrutinib -0.041 | [4] -0.164 | ralimetinib -0.024 | [2] -0.14 | [5] 0.027 | [1] 0.073 | [3] 0.099

LIMD2 (UniProt Q9BT23)
inactive: [4] 0.095 | [5] 0.112 | [3] -0.05

LACRT (UniProt Q9GZZ8)
inactive: ibrutinib 0.145 | [4] 0.091 | ralimetinib -0.135 | [2] 0.135 | [1] 0.104 | [6] -0.622
